# Data as given in patent US20090226375.
# Results from cells or extracts need not show a direct contact. Tags and fusion partners may be left off the protein sequences shown.
# Target: T1, Serum response factor (SRF) (UniProt P11831)
# T1 sequence (looked up, limits assumed): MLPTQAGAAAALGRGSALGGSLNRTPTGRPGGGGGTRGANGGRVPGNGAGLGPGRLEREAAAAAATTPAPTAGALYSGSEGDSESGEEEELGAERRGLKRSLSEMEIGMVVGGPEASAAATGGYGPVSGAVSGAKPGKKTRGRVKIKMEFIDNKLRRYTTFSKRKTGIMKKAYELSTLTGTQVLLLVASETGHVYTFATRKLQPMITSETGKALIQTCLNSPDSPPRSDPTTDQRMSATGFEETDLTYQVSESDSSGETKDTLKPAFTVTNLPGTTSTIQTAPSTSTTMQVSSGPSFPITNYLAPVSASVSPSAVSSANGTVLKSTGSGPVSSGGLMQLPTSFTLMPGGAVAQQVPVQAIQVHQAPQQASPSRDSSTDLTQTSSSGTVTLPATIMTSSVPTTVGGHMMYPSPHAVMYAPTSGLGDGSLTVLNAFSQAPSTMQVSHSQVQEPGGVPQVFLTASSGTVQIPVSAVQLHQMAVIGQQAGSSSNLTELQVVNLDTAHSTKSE
# Assay: EMSA
# Details: COS cell extract; 6% non-denaturing gel, 0.5xTBE; cold wild-type oligo competes, mutant cold competitor does not; protein in a lysate after overexpression; protein details: epitope-tagged, expressed in COS cells; label: Klenow-labeled
sequence,measurement,value
GGGCCTTGCCATATAAGGGCAGGA / GGTCCTGCCCTTATATGGCAAGGC [miR-143/145 CArG wild-type probe],binding result,binds
